For at least one entry, the source does not settle the construct or the ends of the probe. Whether high values mean tight binding is not given here for every scale.
Test system: thrombin (human, from plasma, Sigma T6884) (Homo sapiens)
Test: pull-down
Conditions: release strand added (strand displacement), combined value for TBA and HD22

| Sequence | binding signal (% of captured thrombin released) |
| --- | --- |
| AGTCCGTGGTAGGGCAGGTTGGGGTGACTTATTCGCATTCTTAGATTAGAGCCTTATGAGCCGTC / TAAGAATGCGAATAAGTCACCCCAACCTGCCCTACCACGGACT [Switchable HD22 aptamer + release strand] | 71.7 |
| GGTTGGTGTGGTTGGTTAGTGATGAGCGGGATTAGAGCCTTATGAGCCGTC / CCGCTCATCACTAACCAACCACACCAACC [Switchable TBA aptamer + release strand] | 71.7 |

Source: article doi:10.1101/2025.07.24.666000
